Experimental data: publication PMC8213057, “Targeting ALK2: An Open Science Approach to Developing Therapeutics for the Treatment of Diffuse Intrinsic Pontine Glioma” (Journal of Medicinal Chemistry, 2020)

By UniProt entry, the sequences of proteins in these tests, tags left out. Where a name states a change or a piece, a line headed by the entry shows the natural chain unless it says otherwise. Residues count along the entry.
UniProt O14965: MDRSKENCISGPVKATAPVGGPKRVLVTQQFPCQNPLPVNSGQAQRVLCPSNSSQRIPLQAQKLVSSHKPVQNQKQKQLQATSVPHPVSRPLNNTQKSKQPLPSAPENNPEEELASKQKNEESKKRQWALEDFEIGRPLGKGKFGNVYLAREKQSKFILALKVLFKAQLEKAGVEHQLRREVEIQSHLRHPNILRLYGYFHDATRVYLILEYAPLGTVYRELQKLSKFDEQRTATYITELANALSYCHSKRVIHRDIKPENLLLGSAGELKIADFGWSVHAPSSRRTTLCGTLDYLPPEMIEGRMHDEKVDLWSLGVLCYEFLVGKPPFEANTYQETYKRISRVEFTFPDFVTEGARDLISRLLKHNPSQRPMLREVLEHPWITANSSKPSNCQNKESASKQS
UniProt P06493, whole entry: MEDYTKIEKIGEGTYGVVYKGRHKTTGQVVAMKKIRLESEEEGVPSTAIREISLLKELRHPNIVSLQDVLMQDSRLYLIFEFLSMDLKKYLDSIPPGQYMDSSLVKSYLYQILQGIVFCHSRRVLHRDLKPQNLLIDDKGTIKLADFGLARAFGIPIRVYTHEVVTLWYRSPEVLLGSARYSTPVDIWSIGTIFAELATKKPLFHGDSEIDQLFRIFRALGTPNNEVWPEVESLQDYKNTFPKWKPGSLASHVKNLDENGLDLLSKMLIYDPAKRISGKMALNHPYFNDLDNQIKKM
UniProt Q00535, whole entry: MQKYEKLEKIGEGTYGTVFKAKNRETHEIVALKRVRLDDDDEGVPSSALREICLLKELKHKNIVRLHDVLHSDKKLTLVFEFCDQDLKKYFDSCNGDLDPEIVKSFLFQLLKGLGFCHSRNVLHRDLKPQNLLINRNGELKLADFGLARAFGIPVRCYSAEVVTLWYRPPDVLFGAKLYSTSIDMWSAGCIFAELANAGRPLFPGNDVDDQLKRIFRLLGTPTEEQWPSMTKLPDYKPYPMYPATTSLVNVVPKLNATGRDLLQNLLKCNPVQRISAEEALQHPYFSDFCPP
UniProt Q00534, whole entry: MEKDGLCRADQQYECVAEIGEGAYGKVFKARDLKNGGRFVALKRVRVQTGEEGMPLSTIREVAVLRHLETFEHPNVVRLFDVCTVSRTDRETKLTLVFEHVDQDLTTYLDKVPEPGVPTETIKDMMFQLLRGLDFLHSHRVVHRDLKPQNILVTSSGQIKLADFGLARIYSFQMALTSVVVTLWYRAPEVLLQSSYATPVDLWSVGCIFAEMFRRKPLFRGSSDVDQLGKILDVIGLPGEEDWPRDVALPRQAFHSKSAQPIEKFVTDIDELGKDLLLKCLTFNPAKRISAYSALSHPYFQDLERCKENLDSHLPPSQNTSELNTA
UniProt Q15375, 28-998: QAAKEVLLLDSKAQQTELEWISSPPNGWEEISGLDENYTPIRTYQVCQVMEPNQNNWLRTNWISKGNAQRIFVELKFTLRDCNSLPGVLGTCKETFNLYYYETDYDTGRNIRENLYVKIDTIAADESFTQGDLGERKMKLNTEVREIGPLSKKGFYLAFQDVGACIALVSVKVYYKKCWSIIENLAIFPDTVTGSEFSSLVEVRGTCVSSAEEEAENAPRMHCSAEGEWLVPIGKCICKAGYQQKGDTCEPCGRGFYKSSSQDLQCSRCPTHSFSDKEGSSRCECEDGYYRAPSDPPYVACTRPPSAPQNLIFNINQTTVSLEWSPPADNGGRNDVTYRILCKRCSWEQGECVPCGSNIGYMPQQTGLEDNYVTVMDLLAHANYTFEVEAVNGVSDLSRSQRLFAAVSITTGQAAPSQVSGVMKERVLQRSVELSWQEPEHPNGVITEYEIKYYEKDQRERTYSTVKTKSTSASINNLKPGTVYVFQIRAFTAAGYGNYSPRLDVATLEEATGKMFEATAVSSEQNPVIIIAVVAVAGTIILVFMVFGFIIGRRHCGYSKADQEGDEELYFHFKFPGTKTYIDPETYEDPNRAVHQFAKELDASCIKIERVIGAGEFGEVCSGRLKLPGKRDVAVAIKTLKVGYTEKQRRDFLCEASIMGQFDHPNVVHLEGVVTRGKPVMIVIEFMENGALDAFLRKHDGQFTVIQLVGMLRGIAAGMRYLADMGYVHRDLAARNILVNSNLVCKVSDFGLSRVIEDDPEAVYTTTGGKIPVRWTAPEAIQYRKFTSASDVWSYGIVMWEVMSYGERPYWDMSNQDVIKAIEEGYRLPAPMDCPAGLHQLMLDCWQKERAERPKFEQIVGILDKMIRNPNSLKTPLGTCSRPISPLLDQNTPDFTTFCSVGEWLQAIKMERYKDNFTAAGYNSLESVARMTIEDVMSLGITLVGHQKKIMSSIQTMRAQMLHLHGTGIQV
UniProt Q9Y2U5: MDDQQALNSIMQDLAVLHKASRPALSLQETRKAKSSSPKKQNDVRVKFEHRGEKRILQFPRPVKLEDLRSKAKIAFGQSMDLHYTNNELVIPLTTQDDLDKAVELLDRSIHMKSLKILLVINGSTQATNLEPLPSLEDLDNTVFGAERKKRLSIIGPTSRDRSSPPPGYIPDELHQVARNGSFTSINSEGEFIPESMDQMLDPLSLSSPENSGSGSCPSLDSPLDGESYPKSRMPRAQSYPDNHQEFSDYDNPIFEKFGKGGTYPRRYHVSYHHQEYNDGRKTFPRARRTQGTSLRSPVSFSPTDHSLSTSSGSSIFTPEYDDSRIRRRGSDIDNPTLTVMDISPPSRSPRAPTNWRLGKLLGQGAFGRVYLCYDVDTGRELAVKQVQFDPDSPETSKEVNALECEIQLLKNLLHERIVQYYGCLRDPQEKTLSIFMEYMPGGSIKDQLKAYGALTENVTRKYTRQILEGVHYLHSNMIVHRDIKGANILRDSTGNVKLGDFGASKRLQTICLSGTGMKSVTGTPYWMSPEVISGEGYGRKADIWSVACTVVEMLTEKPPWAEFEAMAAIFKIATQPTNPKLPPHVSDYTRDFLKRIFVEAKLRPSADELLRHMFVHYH
UniProt O75716, whole entry: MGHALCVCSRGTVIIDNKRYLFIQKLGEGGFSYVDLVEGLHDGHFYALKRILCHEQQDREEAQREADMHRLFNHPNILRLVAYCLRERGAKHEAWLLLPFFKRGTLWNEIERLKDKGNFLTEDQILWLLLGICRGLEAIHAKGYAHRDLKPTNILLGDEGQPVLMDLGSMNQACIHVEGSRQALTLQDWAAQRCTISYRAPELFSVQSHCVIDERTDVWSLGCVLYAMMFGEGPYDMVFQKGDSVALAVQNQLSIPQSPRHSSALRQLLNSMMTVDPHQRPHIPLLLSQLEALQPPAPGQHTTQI
UniProt Q15569: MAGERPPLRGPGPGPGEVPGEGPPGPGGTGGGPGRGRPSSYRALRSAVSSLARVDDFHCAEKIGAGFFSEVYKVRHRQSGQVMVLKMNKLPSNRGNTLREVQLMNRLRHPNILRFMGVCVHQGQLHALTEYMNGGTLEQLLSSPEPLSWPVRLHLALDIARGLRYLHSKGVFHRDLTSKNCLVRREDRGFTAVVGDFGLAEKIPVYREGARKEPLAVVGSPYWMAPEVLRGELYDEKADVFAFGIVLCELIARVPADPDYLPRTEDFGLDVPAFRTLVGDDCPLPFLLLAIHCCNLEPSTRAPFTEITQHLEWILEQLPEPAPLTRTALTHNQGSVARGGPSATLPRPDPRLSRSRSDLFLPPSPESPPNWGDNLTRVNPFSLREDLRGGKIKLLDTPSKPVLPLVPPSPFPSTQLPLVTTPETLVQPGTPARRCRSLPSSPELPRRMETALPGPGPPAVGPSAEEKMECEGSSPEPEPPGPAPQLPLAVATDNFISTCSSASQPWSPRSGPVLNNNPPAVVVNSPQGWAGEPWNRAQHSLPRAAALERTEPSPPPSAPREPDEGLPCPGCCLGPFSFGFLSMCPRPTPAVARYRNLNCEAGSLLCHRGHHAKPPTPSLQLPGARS
UniProt P11802: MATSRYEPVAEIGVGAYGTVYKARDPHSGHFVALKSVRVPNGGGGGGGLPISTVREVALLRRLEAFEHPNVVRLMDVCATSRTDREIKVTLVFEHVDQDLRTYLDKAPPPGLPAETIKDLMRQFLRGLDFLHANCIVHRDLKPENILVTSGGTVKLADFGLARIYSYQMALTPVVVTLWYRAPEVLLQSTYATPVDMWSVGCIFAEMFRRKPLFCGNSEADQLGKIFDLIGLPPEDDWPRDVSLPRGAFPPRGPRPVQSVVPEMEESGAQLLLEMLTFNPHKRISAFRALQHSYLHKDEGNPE
UniProt P54764, 20-986: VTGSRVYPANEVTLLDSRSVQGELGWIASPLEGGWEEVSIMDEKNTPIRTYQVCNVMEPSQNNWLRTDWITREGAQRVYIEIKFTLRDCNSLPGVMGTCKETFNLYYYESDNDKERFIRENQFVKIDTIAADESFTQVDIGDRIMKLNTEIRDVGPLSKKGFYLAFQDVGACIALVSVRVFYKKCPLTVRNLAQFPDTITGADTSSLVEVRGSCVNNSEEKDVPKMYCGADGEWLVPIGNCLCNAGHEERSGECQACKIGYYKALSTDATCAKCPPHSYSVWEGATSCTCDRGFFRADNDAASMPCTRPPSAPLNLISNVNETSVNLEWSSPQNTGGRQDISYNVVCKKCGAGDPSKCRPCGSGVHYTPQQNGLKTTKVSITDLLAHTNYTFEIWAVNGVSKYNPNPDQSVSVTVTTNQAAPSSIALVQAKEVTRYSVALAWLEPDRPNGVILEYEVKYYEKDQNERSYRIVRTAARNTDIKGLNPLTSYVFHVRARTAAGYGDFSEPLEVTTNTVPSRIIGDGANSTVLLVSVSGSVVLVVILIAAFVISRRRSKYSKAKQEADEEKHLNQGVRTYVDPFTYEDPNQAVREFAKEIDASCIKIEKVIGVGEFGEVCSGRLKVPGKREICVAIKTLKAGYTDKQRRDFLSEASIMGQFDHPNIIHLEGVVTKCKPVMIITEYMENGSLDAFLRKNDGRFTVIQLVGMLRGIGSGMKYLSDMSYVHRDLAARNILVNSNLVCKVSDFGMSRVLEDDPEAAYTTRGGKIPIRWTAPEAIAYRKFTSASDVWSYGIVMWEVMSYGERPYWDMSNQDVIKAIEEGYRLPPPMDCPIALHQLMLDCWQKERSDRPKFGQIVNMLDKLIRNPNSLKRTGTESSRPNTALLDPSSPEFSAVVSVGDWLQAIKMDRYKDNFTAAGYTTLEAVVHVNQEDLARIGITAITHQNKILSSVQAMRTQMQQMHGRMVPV
UniProt O75582, whole entry: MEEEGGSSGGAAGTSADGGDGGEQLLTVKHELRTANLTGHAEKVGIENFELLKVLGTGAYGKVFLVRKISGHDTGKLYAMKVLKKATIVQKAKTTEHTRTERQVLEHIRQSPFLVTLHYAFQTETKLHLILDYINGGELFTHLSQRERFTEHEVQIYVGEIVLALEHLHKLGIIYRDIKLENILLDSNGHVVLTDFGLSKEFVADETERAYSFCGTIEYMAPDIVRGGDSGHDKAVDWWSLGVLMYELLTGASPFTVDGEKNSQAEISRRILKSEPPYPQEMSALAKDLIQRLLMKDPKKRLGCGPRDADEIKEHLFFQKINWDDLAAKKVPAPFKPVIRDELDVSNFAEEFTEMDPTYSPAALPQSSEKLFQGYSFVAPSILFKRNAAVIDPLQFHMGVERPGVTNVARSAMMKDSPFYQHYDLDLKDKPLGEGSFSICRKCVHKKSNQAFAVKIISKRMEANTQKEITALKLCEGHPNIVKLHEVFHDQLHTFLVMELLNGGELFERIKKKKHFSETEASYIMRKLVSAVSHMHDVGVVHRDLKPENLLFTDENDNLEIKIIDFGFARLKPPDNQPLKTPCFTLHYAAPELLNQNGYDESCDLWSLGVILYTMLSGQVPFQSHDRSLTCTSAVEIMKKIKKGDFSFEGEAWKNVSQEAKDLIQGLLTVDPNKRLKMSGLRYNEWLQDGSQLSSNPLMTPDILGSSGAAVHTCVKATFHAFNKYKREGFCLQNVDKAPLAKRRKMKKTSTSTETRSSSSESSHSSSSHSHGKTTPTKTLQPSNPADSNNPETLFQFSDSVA
UniProt Q9NQU5: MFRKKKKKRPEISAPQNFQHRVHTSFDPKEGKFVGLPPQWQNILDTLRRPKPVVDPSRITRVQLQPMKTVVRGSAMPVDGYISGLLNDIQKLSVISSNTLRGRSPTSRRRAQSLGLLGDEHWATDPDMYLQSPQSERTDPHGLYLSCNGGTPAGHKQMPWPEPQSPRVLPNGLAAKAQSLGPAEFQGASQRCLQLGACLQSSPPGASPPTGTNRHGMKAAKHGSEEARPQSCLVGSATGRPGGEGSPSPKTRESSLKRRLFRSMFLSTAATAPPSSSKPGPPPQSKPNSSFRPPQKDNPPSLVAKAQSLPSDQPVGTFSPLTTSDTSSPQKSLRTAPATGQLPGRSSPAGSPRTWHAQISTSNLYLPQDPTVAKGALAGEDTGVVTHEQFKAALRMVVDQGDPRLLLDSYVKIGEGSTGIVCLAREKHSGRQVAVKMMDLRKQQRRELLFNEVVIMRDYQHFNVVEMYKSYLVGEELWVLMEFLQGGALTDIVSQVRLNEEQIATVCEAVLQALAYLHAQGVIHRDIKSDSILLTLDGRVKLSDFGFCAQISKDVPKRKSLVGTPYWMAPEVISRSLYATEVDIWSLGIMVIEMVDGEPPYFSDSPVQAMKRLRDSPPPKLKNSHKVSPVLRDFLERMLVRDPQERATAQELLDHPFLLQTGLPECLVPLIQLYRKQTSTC

What was measured:
CDK9/cyclin K = molecular target: T1, CDK9/cyclin K (Homo sapiens, UniProt P50750); test: 375-member kinase panel; type: biochemical; settings: Run 1, Run 2
T1 construct: purchased Reaction Biology Corporation
Description: […]. To further investigate the off-target activity of these analogues, we profiled them in a 375-member kinase panel. […] […]. […] […].

Aurora A = Aurora A (Homo sapiens, UniProt O14965); settings: 1 μM; Run 1, Run 2
c-Src = c-Src (Homo sapiens, UniProt P12931); settings: 1 μM; Run 1, Run 2
CDK1/cyclin A = CDK1/cyclin A (Homo sapiens, UniProt P06493); settings: 1 μM; Run 1, Run 2
CDK14/cyclin Y (PFTK1) = CDK14/cyclin Y (PFTK1) (Homo sapiens, UniProt O94921); settings: 1 μM; Run 1, Run 2
CDK5/P25 = CDK5/P25 (Homo sapiens, UniProt Q00535); settings: 1 μM; Run 1, Run 2
CDK6/cyclin D3 = CDK6/cyclin D3 (Homo sapiens, UniProt Q00534); settings: 1 μM; Run 1, Run 2
CK1g1 = CK1g1 (Homo sapiens, UniProt Q9HCP0); settings: 1 μM; Run 1, Run 2
DAPK1 = DAPK1 (Homo sapiens, UniProt P53355); settings: 1 μM; Run 1, Run 2
DCAMKL2 = DCAMKL2 (Homo sapiens, UniProt Q8N568); settings: 1 μM; Run 1, Run 2
DYRK4 = DYRK4 (Homo sapiens, UniProt Q9NR20); settings: 1 μM; Run 1, Run 2
EPHA2 = EPHA2 (Homo sapiens, UniProt P29317); settings: 1 μM; Run 1, Run 2
EPHA7 = EPHA7 (Homo sapiens, UniProt Q15375); settings: 1 μM; Run 1, Run 2
GRK5 = GRK5 (Homo sapiens, UniProt P34947); settings: 1 μM; Run 1, Run 2
MEK3 = MEK3 (Homo sapiens, UniProt P46734); settings: 1 μM; Run 1, Run 2
MEKK2 = MEKK2 (Homo sapiens, UniProt Q9Y2U5); settings: 1 μM; Run 1, Run 2
PAK5 = PAK5 (Homo sapiens, UniProt Q9P286); settings: 1 μM; Run 1, Run 2
ROCK1 = ROCK1 (Homo sapiens, UniProt Q13464); settings: 1 μM; Run 1, Run 2
STK16 = STK16 (Homo sapiens, UniProt O75716); settings: 1 μM; Run 1, Run 2
TESK1 = TESK1 (Homo sapiens, UniProt Q15569); settings: 1 μM; Run 1, Run 2
CAMK2g = CAMK2g (Homo sapiens, UniProt Q13555); test: biochemical; settings: read-out: % enzyme activity, 1 μM; Run 1, Run 2
CDC7/DBF4 = CDC7/DBF4 (Homo sapiens, UniProt O00311); test: biochemical; settings: read-out: % enzyme activity, 1 μM; Run 1, Run 2
CDK4/cyclin D3 = CDK4/cyclin D3 (Homo sapiens, UniProt P11802); test: biochemical; settings: read-out: % enzyme activity, 1 μM; Run 1, Run 2
EPHA4 = EPHA4 (Homo sapiens, UniProt P54764); test: biochemical; settings: read-out: % enzyme activity, 1 μM; Run 1, Run 2
FGFR4 = FGFR4 (Homo sapiens, UniProt P22455); test: biochemical; settings: read-out: % enzyme activity, 1 μM; Run 1, Run 2
GRK7 = GRK7 (Homo sapiens, UniProt Q8WTQ7); test: biochemical; settings: read-out: % enzyme activity, 1 μM; Run 1, Run 2
LRRK2 = LRRK2 (Homo sapiens, UniProt Q5S007); test: biochemical; settings: read-out: % enzyme activity, 1 μM; Run 1, Run 2
MLK3/MAP3K11 = MLK3/MAP3K11 (Homo sapiens, UniProt Q16584); test: biochemical; settings: read-out: % enzyme activity, 1 μM; Run 1, Run 2
MSK1/RPS6KA5 = MSK1/RPS6KA5 (Homo sapiens, UniProt O75582); test: biochemical; settings: read-out: % enzyme activity, 1 μM; Run 1, Run 2
MSSK1/STK23 = MSSK1/STK23 (Homo sapiens, UniProt Q9UPE1); test: biochemical; settings: read-out: % enzyme activity, 1 μM; Run 1, Run 2
MST1/STK4 = MST1/STK4 (Homo sapiens, UniProt Q13043); test: biochemical; settings: read-out: % enzyme activity, 1 μM; Run 1, Run 2
PAK1 = PAK1 (Homo sapiens, UniProt Q13153); test: biochemical; settings: read-out: % enzyme activity, 1 μM; Run 1, Run 2
PAK6 = PAK6 (Homo sapiens, UniProt Q9NQU5); test: biochemical; settings: read-out: % enzyme activity, 1 μM; Run 1, Run 2
PKCb2 = PKCb2 (Homo sapiens, UniProt P05771); test: biochemical; settings: read-out: % enzyme activity, 1 μM; Run 1, Run 2
STK39/STLK3 = STK39/STLK3 (Homo sapiens, UniProt Q9UEW8); test: biochemical; settings: read-out: % enzyme activity, 1 μM; Run 1, Run 2
TAOK3/JIK = TAOK3/JIK (Homo sapiens, UniProt Q9H2K8); test: biochemical; settings: read-out: % enzyme activity, 1 μM; Run 1, Run 2
TESK2 = TESK2 (Homo sapiens, UniProt Q96S53); test: biochemical; settings: read-out: % enzyme activity, 1 μM; Run 1, Run 2
TRKB = TRKB (Homo sapiens, UniProt Q16620); test: biochemical; settings: read-out: % enzyme activity, 1 μM; Run 1, Run 2
TYK1/LTK = TYK1/LTK (Homo sapiens, UniProt P29376); test: biochemical; settings: read-out: % enzyme activity, 1 μM; Run 1, Run 2
ULK1 = ULK1 (Homo sapiens, UniProt O75385); test: biochemical; settings: read-out: % enzyme activity, 1 μM; Run 1, Run 2
YES/YES1 = YES/YES1 (Homo sapiens, UniProt P07947); test: biochemical; settings: read-out: % enzyme activity, 1 μM; Run 1, Run 2

COc1cc(-c2cncc(-c3ccc(N4CCN(C(C)C)CC4)cc3)c2C)cc(F)c1C(N)=O [Compound 26b, 2-Fluoro-4-(5-(4-(4-isopropylpiperazin-1-yl)phenyl)-4-methylpyridin-3-yl)-6-methoxybenzamide] was tested, and the “% enzyme activity” value (CDK9/cyclin K; 1 μM) was 104.69%, the remaining activity at 1 µM (CDK9/cyclin K; read-out: % enzyme activity, 1 μM) was 106% and the “% enzyme activity” value (Aurora A) was 91.68%. The “% enzyme activity” value (c-Src) was 98.08%, the “% enzyme activity” value (CDK1/cyclin A) was 83.71% and the “% enzyme activity” value (CDK14/cyclin Y (PFTK1)) was 97.41%. The “% enzyme activity” value (CDK5/P25) was 93.23%, the “% enzyme activity” value (CDK6/cyclin D3) was 88.85% and the “% enzyme activity” value (CK1g1) was 60.03%. The “% enzyme activity” value (DAPK1) was 98.30%, the “% enzyme activity” value (DCAMKL2) was 69.99% and the “% enzyme activity” value (DYRK4) was 96.54%. For the same compound, the “% enzyme activity” value (EPHA2) was 98.97%, the “% enzyme activity” value (EPHA7) was 102.43% and the “% enzyme activity” value (GRK5) was 97.81%. The “% enzyme activity” value (MEK3) was 103.04%, the “% enzyme activity” value (MEKK2) was 82.92% and the “% enzyme activity” value (PAK5) was 96.36%. For the same compound, the “% enzyme activity” value (ROCK1) was 96.20%, the “% enzyme activity” value (STK16) was 99.20% and the “% enzyme activity” value (TESK1) was 108.28%. The remaining activity at 1 µM (CAMK2g) was 96.3%, the remaining activity at 1 µM (CDC7/DBF4) was 98.1% and the remaining activity at 1 µM (CDK4/cyclin D3) was 93.7%. It also gave a remaining activity at 1 µM (EPHA4) of 101%, a remaining activity at 1 µM (FGFR4) of 95.2% and a remaining activity at 1 µM (GRK7) of 101%. The remaining activity at 1 µM (LRRK2) was 74.1%, the remaining activity at 1 µM (MLK3/MAP3K11) was 106% and the remaining activity at 1 µM (MSK1/RPS6KA5) was 99.7%. The remaining activity at 1 µM (MSSK1/STK23) was 98.2%, the remaining activity at 1 µM (MST1/STK4) was 100% and the remaining activity at 1 µM (PAK1) was 104%. For the same compound, the remaining activity at 1 µM (PAK6) was 98.8%, the remaining activity at 1 µM (PKCb2) was 105% and the remaining activity at 1 µM (STK39/STLK3) was 97.6%. The remaining activity at 1 µM (TAOK3/JIK) was 68.9%, the remaining activity at 1 µM (TESK2) was 93.3% and the remaining activity at 1 µM (TRKB) was 109%. It also gave a remaining activity at 1 µM (TYK1/LTK) of 99.9%, a remaining activity at 1 µM (ULK1) of 86.3% and a remaining activity at 1 µM (YES/YES1) of 100%.
